PubChem BioAssay AID652243, Drosophila RNAi Screening Center – 2013
Aim: 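Fly genes required for human androgen receptor driven transcription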 (primary screen). System: Drosophila S2R+ cells. Reagents: long dsRNA against Drosophila genes. Timing: 72 h (48 h, then 24 h hormone). Challenge: synthetic androgen R1881 at 10 nM for 24 h. Read-out: 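Per-well raw luminescence of the androgen-driven firefly reporter and of the Renilla control, two replicates each, without normalisation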. Direction: firefly reporter light: higher = more light from androgen-responsive reporter; Renilla control light: higher = more constitutive control signal (cell number, transfection). Call rule: 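Hit when the log firefly-to-Renilla ratio dropped or increased by a fixed fold versus the mean of GFP or LacZ controls across duplicate plates; lowering cut given as 1.5 and as 3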. Meaning of the calls: active = hit: reporter lowered or raised; inactive = no hit.
In all, the deposit lists about 24,000 reagents; below is a random part of those that have a named target and a result. Over the whole deposit, 246 (1%) are marked active. 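Plates not normalised; calls are printed but the firefly/Renilla ratio behind them is not deposited; fold cut for lowering reported inconsistently.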 The raw values are shown without normalisation. A number with no mark means an inactive call. Reagents against one gene are numbered here. Names joined by + are all predicted targets of the reagent. Not stated in the record: the amount of reagent.

no.	Target gene	reagent	firefly reporter light, replicate 1	firefly reporter light, replicate 2	Renilla control light, replicate 1	Renilla control light, replicate 2
1	CG16717	1	2.30e5	2.44e5	2.65e6	2.68e6
2	CG16717	2	7.13e5	7.42e5	1.12e6	1.12e6
3	CG42507 + Trl	1	1.76e5	2.80e5	5.36e5	5.77e5
4	CG42507 + Trl	2	3.85e5	2.14e5	7.06e5	4.19e5
5	Prosbeta4R1	1	9.20e5	9.64e5	1.81e6	2.02e6
6	Rab26	1	1.36e5	84934	1.82e6	1.74e6
7	Rab26	2	2.64e5	3.23e5	2.06e6	2.97e6
8	Rab26	3	4.02e5	3.14e5	5.18e5	4.52e5
9	Rab26	4	2.33e5	2.46e5	6.43e5	9.22e5
10	Gr58c	1	2.35e5	1.80e5	1.71e6	8.61e5
11	Tsp66E	1	2.42e5	1.77e5	2.07e6	1.58e6

An excerpt from above, limited to “firefly reporter light, replicate 1”.
CG42507 + Trl #1 = 1.76e5
CG42507 + Trl #2 = 3.85e5

Further records:
no.	Target gene	reagent	firefly reporter light, replicate 1	firefly reporter light, replicate 2	Renilla control light, replicate 1	Renilla control light, replicate 2
12	CG14100	1	1.73e5	1.39e5	1.68e6	1.88e6
13	Plod	1	1.18e6	8.47e5	1.27e6	1.13e6
14	Plod	2	2.96e5	2.24e5	2.70e6	1.86e6
15	tadr	1	1.02e6	5.62e5	2.74e6	2.71e6
16	Lsm10	1	1.60e5	1.14e5	1.32e6	6.89e5
17	Uch-L5	1	9.66e5	5.57e5	9.21e5	9.69e5
18	Uch-L5	2	2.17e5	2.38e5	5.34e5	8.80e5
19	CG32547	1	4.52e5	4.96e5	6.12e5	4.67e5
20	CG32547	2	3.29e5	3.75e5	3.80e6	3.58e6
21	CG11562	1	84280	83879	7.17e5	9.52e5
22	alpha-Est10	1	1.10e5	1.44e5	1.28e6	1.29e6
23	alpha-Est10	2	1.08e6	8.83e5	1.01e6	8.50e5
24	CG9192	1	72524	59115	7.05e5	7.56e5
